In patent US20240191276 (published 2024):

Experiment: general procedure: Fmoc solid-phase peptide synthesis; Rink Amide resin (GL-biochem, 0.65 mmol/g); DIC/Oxyma
Details: conjugation step, HPLC peak area at 260 nm

Substance: H(Aib)EGTFTSDVSSYLEGQAAKEFIAWLVKGRGLPETGLE (SEQ ID NO: 16)
- conjugation yield: 23%
